Some results were stated once for a whole list of compounds, not compound by compound. At least one compound was matched to its structure with a doubt left.
target: T1, h-NK1 receptors (Homo sapiens, UniProt P25103); assay: Evaluation of NK1 antagonist transport efficiency to the central nervous system using a h-NK1 receptor binding assay; settings: brain extract of male SD rats 5 min after i.v. injection of test compound, dose 1 mg/kg; CHO cell membranes expressing h-NK1
T1 construct: expressed in transfected cells; host or cells: CHO cells (permanent expression), crude cell membranes
Protocol: A. Evaluation of NK1 Antagonist Transport Efficiency to the Cental Nervous System Using a h-NK1 Receptor Binding Assay
(1) Administration of Test Compound and Extraction of the Compound From Brain
Male SD rats were given an i.v. injection of a solution containing a test compound (1 mg/kg). 5 Min later the animals were anesthetized by ether, bled and perfused through the aorta ascendens with 20 ml of saline. The brain was rapidly removed, weighed and homogenized in 4 vol. ice-cold distilled water by using Polytoron (KINEMATICA). To extract the test compound, 500 μl of the homogenate, 100 μl of methanol, 500 μl of 0.1 N NaOH and 4 ml of ethyl acetate were mixed by shaking for 10 min at room temperature. The organic phase (2.5 ml) was recovered by centrifugation at 3,000 rpm for 10 min, dried and dissolved in dimethyl sulfoxide.
(2) h-NK1 Receptor Binding Assay
(a) Crude CHO Cell Membrane Preparation
CHO cells permanently expressing h-NK1 receptors were harvested and homogenized with a Dounce homogenizer at 4° C. in a buffer (0.25 M sucrose, 25 mM Tris-HCl (pH 7.4), 10 mM MgCl2, 1 mM EDTA, 5 μg/ml p-APMSF). The homogenate was centrifuged (500×g, 10 min), and the pellet was resuspended in the same buffer, homogenized, and centrifuged. The two supernatants were combined and centrifuged (100,000×g, 1 hour). The crude cell membranes thus isolated were resuspended in a buffer (25 MM Tris-HCl (pH 7.4), 10 mM MgCl2, 1 mM EDTA, 5 μg/ml p-APMSF) and stored at −80° C. until use.
(b) ^125I-BH-Substance P Binding to the Prepared Membrane
Cell membranes (6 μg/ml) were incubated with ^125I-BH-Substance P (0.1 nM) with or without the extracted compounds in 0.25 ml of a medium (50 mM Tris-HCl (pH 7.4), 5 mM MnCl2, 20 μg/ml chymrostatin, 40 μg/ml bacitracin, 4 μg/ml leupeptin, 5 μg/ml p-APMSF, 200 μg/ml BSA) at 22° C. for 90 min. […] The radioactivity was counted by using an auto gamma counter (Packard RIASTAR 5420A). […]

The chains behind the UniProt entries cited, without tags or fusion partners.
UniProt P25103, whole entry: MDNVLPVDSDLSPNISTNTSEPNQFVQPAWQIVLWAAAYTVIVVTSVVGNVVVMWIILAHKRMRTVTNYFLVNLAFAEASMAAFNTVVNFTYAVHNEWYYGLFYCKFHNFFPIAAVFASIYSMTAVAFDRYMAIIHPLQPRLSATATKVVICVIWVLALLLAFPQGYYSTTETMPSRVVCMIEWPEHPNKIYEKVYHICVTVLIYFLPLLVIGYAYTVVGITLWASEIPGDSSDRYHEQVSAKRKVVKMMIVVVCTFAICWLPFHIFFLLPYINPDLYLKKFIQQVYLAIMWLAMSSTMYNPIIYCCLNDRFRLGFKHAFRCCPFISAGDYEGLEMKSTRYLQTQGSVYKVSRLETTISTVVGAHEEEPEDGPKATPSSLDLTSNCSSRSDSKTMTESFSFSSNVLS

Inhibition rate of 125I-BH-Substance P binding to h-NK1 receptors, more than 80%:
Cc1ccc(C[C@@H]2CN(CCN(C)Cc3cccnc3)CCN2C(=O)c2cc(C(F)(F)F)cc(C(F)(F)F)c2)cc1C.Cl.Cl.Cl [82-(4), (2R)-1-[3,5-Bis(trifluoromethyl)benzoyl]-2-(3,4-dimethylbenzyl)-4-[N-methyl-N-(3-pyridylmethyl)-2-aminoethyl]piperazine trihydrocloride]
Cl.Cl.O=C(c1cc(C(F)(F)F)cc(C(F)(F)F)c1)N1CCN(CCN2CCOCC2)C[C@H]1Cc1ccc2ccccc2c1 [44-(1), (2R)-1-[3,5-Bis(trifluoromethyl)benzoyl]-2-(2-naphthylmethyl)-4-(2-morpholinoethyl) piperazine dihydrocloride]
Cc1ccc(C[C@@H]2CN(CCN3CCOCC3)CCN2C(=O)c2cc(C(F)(F)F)cc(C(F)(F)F)c2)cc1C.Cl.Cl [37-(5), (2R)-4-(2-Morpholinoethyl)-1-[3,5-bis(trifluoromethyl)benzoyl]-2-(3,4-dimethylbenzyl)piperazine dihydrocloride]

Source: US20020010182A1, “Piperazine derivatives as tachykinin antagonists” (FUJISAWA PHARMACEUTICAL CO., LTD., priority 1995, published 2002)
